Reference: patent US20260308278A1, “ANTIBODY THAT BINDS TO C3bBb” (Hoffmann-La Roche Inc., priority 2023, published 2026)

System: human C3bBb complex
Test: Stability (decay) of C3bBb complexes with different Bb subunits by Bio Layer Interferometry
Format: binding

B1: FB (D279G, K350N and M458I): FB with D279G, K350N and M458I mutations is indicated in SEQ ID NO: 493 (protein, UniProt P00751 26-764, looked up, variant D279G K350N M458I)
Complement factor B: TPWSLARPQGSCSLEGVEIKGGSFRLLQEGQALEYVCPSGFYPYPVQTRTCRSTGSWSTLKTQDQKTVRKAECRAIHCPRPHDFENGEYWPRSPYYNVSDEISFHCYDGYTLRGSANRTCQVNGRWSGQTAICDNGAGYCSNPGIPIGTRKVGSQYRLEDSVTYHCSRGLTLRGSQRRTCQEGGSWSGTEPSCQDSFMYDTPQEVAEAFLSSLTETIEGVDAEDGHGPGEQQKRKIVLDPSGSMNIYLVLDGSGSIGASNFTGAKKCLVNLIEKVASYGVKPRYGLVTYATYPKIWVKVSEADSSNADWVTKQLNEINYEDHKLNSGTNTKKALQAVYSMMSWPDDVPPEGWNRTRHVIILMTDGLHNMGGDPITVIDEIRDLLYIGKDRKNPREDYLDVYVFGVGPLVNQVNINALASKKDNEQHVFKVKDIENLEDVFYQMIDESQSLSLCGMVWEHRKGTDYHKQPWQAKISVIRPSKGHESCMGAVVSEYFVLTAAHCFTVDDKEHSIKVSVGGEKRDLEIEVVLFHPNYNINGKKEAGIPEFYDYDVALIKLKNKLKYGQTIRPICLPCTEGTTRALRLPPTTTCQQQKEELLPAQDIKALFVSEEEKKLTRKEVYIKNGDKKGSCERDAQYAPGYDKVKDISEVVTPRFLCTGGVSPYADPNTCRGDSGGPLIVHKRSRFIQVGVISWGVVDVCKNQKRQKQVPAHARDFHINLFQVLPWLKEKLQDEDLGFL
In the case of B1, the “prevalence of main species” value (Mg2+, double exponential fit) is reported as 93% and the “prevalence of main species” value (Ni2+, single exponential fit) is reported as 100%.
